By UniProt entry, the sequences of proteins in these tests, tags left out. Residues count along the entry.
UniProt P20930: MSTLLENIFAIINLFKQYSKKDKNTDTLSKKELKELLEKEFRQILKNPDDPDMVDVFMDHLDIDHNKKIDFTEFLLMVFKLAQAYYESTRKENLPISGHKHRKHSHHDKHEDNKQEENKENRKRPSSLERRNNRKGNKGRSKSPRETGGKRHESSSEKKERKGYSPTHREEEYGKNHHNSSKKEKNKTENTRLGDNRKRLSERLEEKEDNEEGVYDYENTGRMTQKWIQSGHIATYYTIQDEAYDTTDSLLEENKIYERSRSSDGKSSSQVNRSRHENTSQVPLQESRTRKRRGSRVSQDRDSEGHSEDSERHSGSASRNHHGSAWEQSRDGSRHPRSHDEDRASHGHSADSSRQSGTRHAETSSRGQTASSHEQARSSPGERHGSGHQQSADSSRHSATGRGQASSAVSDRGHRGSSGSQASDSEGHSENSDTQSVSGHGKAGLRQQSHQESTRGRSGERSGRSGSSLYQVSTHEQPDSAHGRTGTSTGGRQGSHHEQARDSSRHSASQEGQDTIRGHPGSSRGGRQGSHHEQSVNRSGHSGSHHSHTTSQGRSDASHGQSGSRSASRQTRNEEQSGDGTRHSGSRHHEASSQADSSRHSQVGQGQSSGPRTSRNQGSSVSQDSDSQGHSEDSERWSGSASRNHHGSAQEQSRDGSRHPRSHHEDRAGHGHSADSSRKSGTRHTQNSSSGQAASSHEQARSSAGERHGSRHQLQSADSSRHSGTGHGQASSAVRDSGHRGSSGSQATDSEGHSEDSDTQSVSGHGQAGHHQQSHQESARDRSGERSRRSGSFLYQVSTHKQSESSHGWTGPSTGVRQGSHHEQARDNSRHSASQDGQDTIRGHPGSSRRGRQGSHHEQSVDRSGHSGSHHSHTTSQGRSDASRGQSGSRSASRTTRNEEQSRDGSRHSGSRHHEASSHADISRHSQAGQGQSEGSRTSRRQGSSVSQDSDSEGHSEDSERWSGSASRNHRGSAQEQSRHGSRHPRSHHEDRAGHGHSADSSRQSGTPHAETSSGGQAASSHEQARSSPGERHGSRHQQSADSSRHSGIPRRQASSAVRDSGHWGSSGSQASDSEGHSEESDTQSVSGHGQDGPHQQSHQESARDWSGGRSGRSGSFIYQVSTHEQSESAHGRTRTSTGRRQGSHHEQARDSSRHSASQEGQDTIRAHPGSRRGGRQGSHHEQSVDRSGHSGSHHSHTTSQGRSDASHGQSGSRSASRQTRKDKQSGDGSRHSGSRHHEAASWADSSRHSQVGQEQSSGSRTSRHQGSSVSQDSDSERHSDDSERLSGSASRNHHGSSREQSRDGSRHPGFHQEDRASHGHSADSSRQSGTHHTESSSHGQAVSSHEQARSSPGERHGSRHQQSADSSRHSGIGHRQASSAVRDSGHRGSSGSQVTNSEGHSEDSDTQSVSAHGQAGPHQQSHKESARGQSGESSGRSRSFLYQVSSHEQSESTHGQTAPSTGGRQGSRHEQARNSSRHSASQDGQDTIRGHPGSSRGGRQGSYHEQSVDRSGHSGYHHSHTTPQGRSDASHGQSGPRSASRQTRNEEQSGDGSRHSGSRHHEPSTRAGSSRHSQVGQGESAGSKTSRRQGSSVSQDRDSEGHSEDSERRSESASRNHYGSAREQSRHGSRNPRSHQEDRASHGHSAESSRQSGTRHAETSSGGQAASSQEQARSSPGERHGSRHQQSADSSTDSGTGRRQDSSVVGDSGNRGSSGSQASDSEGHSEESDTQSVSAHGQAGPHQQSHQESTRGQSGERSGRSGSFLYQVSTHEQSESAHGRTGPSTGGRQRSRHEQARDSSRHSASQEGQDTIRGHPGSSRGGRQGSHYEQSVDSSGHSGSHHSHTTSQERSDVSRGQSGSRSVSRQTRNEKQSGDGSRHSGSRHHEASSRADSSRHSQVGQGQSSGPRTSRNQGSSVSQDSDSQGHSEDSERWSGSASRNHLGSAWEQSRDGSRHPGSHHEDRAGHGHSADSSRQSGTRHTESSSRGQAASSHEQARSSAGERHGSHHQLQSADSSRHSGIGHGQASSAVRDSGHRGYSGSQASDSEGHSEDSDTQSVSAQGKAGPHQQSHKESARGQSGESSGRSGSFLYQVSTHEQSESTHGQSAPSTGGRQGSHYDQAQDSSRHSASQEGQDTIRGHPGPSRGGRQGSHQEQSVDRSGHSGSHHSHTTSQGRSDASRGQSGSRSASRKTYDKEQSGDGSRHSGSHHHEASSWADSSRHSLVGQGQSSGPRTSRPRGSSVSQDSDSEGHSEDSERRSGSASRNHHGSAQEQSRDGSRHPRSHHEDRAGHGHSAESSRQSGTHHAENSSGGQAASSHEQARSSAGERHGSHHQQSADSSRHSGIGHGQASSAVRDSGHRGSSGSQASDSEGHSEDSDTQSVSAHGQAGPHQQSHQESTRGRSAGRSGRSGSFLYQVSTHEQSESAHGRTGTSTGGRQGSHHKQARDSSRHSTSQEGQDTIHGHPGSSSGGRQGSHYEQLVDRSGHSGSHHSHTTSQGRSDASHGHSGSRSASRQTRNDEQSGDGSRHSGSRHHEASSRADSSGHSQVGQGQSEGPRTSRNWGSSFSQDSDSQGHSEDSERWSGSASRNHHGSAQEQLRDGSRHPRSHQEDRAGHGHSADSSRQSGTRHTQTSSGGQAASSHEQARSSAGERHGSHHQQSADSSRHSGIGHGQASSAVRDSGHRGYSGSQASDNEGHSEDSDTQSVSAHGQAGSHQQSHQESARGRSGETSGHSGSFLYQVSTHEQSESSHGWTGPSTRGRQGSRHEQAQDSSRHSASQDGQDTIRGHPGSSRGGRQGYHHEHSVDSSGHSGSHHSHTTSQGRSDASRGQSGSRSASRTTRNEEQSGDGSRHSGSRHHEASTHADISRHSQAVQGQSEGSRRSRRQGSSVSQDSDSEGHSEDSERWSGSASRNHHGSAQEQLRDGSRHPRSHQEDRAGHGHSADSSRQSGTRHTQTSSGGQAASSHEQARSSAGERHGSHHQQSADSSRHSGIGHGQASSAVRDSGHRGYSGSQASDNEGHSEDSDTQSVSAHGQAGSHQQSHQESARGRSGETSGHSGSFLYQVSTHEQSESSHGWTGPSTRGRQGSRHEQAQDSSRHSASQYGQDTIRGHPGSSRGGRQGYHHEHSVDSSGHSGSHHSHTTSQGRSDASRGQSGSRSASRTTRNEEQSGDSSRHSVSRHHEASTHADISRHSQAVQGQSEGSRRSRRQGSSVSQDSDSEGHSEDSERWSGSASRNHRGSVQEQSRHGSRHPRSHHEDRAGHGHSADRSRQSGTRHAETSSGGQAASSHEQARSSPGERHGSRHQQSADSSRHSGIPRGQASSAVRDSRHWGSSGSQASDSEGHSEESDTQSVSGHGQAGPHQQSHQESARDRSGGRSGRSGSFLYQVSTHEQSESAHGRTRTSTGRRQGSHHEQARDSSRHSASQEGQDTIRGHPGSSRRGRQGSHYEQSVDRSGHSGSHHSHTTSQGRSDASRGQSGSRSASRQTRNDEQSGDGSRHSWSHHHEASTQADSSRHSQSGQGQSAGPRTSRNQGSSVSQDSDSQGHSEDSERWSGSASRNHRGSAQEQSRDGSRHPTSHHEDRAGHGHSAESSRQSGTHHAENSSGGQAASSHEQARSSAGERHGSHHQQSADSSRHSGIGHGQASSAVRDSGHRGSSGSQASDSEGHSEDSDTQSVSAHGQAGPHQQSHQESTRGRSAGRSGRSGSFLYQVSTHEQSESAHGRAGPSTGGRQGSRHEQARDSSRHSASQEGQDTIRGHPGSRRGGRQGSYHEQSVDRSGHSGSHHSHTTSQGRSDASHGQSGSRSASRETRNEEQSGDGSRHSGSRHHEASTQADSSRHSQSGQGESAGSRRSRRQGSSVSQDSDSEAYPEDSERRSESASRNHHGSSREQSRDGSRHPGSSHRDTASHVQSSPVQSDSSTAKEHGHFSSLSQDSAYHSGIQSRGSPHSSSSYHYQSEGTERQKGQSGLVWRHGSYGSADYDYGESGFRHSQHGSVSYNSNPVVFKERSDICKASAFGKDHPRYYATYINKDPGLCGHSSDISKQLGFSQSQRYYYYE
UniProt P31040, residues 43-664: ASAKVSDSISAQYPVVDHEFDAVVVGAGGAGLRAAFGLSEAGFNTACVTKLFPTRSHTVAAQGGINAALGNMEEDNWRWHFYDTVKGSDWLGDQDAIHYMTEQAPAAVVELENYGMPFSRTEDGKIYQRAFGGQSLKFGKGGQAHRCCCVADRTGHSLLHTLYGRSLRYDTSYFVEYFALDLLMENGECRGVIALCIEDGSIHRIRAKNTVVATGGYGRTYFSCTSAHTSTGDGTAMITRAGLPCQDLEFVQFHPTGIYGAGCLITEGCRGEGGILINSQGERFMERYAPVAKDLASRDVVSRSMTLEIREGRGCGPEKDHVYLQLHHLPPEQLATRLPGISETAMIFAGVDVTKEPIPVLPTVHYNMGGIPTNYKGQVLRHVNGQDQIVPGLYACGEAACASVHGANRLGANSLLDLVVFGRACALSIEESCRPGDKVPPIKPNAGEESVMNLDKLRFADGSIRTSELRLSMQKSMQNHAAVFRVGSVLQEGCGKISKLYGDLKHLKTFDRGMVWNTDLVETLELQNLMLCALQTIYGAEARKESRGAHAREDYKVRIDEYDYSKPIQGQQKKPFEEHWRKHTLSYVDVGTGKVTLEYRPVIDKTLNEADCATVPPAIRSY

According to PMC12646662:

T1: Flag-CTNND1 C618S, stably expressed in SK-Mel-28 cells (UniProt O60716)
T1 sequence: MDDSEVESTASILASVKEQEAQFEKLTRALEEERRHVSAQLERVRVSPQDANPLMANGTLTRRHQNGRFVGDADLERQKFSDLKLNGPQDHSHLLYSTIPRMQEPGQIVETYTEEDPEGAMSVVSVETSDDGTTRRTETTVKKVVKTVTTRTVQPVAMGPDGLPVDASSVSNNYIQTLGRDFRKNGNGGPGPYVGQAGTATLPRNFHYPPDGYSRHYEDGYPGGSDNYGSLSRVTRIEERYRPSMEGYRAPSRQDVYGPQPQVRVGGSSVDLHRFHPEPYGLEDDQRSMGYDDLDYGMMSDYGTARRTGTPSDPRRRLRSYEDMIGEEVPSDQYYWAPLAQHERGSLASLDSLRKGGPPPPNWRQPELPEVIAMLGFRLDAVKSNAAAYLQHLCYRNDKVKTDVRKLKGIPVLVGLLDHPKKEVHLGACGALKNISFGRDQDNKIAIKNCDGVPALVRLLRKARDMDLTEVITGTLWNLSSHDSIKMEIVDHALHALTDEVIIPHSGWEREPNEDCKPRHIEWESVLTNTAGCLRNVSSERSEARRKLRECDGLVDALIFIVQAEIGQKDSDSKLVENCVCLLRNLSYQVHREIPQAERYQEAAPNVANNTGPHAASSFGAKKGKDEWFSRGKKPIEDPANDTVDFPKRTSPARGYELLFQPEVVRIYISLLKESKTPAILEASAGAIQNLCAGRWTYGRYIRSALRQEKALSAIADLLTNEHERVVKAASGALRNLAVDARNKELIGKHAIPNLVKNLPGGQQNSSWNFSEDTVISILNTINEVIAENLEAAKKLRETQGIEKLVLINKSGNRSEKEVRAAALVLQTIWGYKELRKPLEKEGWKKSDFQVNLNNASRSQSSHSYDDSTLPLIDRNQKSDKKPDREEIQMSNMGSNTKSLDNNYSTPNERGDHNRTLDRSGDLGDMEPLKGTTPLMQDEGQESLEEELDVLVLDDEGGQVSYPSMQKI

T2: ZDHHC13, bait of the IP with mass spectrometry in melanoma cells (UniProt Q8IUH4)
T2 sequence: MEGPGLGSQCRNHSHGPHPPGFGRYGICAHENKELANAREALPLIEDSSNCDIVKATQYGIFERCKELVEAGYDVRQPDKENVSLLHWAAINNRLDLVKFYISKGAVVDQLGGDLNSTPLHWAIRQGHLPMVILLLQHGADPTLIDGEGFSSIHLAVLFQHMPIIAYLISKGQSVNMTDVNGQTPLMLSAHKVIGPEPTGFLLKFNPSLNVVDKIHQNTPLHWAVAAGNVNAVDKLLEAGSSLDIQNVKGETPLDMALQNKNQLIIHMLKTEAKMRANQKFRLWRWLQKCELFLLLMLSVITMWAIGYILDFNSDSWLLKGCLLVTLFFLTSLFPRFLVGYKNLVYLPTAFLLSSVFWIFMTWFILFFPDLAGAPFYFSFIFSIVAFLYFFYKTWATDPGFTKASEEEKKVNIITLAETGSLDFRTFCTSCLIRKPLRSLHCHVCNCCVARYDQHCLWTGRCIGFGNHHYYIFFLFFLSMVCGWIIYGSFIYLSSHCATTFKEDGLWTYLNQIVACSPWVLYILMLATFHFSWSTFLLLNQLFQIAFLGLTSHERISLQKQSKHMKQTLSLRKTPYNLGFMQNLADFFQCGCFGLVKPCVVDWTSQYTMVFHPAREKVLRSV


Assays:
[1] = target: T1, Flag-CTNND1 C618S, stably expressed in SK-Mel-28 cells; test: affinity purification with mass spectrometry; Flag-CTNND1 complexes from SK-Mel-28 cells expressing WT or C618S CTNND1
[2] = target: T2, ZDHHC13, bait of the IP with mass spectrometry in melanoma cells; test: affinity purification with mass spectrometry; IP of ZDHHC13 followed by mass spectrometry in melanoma cells

Molecule | binding [1] | binding [2]
filaggrin (FLG) (from UniProt P20930 1-4061) | binds | 
succinate dehydrogenase subunit A (SDHA) (from UniProt P31040 43-664) (enzyme) |  | binds
transglutaminase 1 (TGM1) (protein, UniProt P22735 1-817) MMDGPRSDVGRWGGNPLQPPTTPSPEPEPEPDGRSRRGGGRSFWARCCGCCSCRNAADDDWGPEPSDSRGRGSSSGTRRPGSRGSDSRRPVSRGSGVNAAGDGTIREGMLVVNGVDLLSSRSDQNRREHHTDEYEYDELIVRRGQPFHMLLLLSRTYESSDRITLELLIGNNPEVGKGTHVIIPVGKGGSGGWKAQVVKASGQNLNLRVHTSPNAIIGKFQFTVRTQSDAGEFQLPFDPRNEIYILFNPWCPEDIVYVDHEDWRQEYVLNESGRIYYGTEAQIGERTWNYGQFDHGVLDACLYILDRRGMPYGGRGDPVNVSRVISAMVNSLDDNGVLIGNWSGDYSRGTNPSAWVGSVEILLSYLRTGYSVPYGQCWVFAGVTTTVLRCLGLATRTVTNFNSAHDTDTSLTMDIYFDENMKPLEHLNHDSVWNFHVWNDCWMKRPDLPSGFDGWQVVDATPQETSSGIFCCGPCSVESIKNGLVYMKYDTPFIFAEVNSDKVYWQRQDDGSFKIVYVEEKAIGTLIVTKAISSNMREDITYLYKHPEGSDAERKAVETAAAHGSKPNVYANRGSAEDVAMQVEAQDAVMGQDLMVSVMLINHSSSRRTVKLHLYLSVTFYTGVSGTIFKETKKEVELAPGASDRVTMPVAYKEYRPHLVDQGAMLLNVSGHVKESGQVLAKQHTFRLRTPDLSLTLLGAAVVGQECEVQIVFKNPLPVTLTNVVFRLEGSGLQRPKILNVGDIGGNETVTLRQSFVPVRPGPRQLIASLDSPQLSQVHGVIQVDVAPAPGDGGFFSDAGGDSHLGETIPMASRGGA | binds | 
plakophilin-1 (PKP1) (protein, UniProt Q13835 1-747) MNHSPLKTALAYECFQDQDNSTLALPSDQKMKTGTSGRQRVQEQVMMTVKRQKSKSSQSSTLSHSNRGSMYDGLADNYNYGTTSRSSYYSKFQAGNGSWGYPIYNGTLKREPDNRRFSSYSQMENWSRHYPRGSCNTTGAGSDICFMQKIKASRSEPDLYCDPRGTLRKGTLGSKGQKTTQNRYSFYSTCSGQKAIKKCPVRPPSCASKQDPVYIPPISCNKDLSFGHSRASSKICSEDIECSGLTIPKAVQYLSSQDEKYQAIGAYYIQHTCFQDESAKQQVYQLGGICKLVDLLRSPNQNVQQAAAGALRNLVFRSTTNKLETRRQNGIREAVSLLRRTGNAEIQKQLTGLLWNLSSTDELKEELIADALPVLADRVIIPFSGWCDGNSNMSREVVDPEVFFNATGCLRKRLGMRELLALVPQRATSSRVNLSSADAGRQTMRNYSGLIDSLMAYVQNCVAASRCDDKSVENCMCVLHNLSYRLDAEVPTRYRQLEYNARNAYTEKSSTGCFSNKSDKMMNNNYDCPLPEEETNPKGSGWLYHSDAIRTYLNLMGKSKKDATLEACAGALQNLTASKGLMSSGMSQLIGLKEKGLPQIARLLQSGNSDVVRSGASLLSNMSRHPLLHRVMGNQVFPEVTRLLTSHTGNTSNSEDILSSACYTVRNLMASQPQLAKQYFSSSMLNNIINLCRSSASPKAAEAARLLLSDMWSSKELQGVLRQQGFDRNMLGTLAGANSLRNFTSRF | binds | 

Results are given in words; binding and its absence hold for the method and conditions named. Binding seen in cells or lysates may run through a third protein. These calls come from enrichment with a bait or labelling near it, and not all partners need be listed. For some of these results: Sequences can lack the tags named with a protein.
